Measurements reported in PubChem BioAssay AID1259405 (NCATS, 2018)
Test: 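Mouse-designed siRNAs used to find CHO productivity engineering targets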 (primary screen). Cells: Chinese hamster CHO-K1 ovary cells with stable secreted eGFP expression. Knock-down reagent: single siRNA against mouse genes, 0.8 pmol siRNA per well (2 µl of 400 nM stock). Time to read-out: 3 days. Read-out: 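Percent of the per-plate non-targeting control median for intracellular GFP per well by laser scanning cytometry and for cell viability by ATP luminescence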. Reading the numbers: GFP, % of control: higher = more GFP per well, higher productivity; viability (ATP), % of control: higher = more viable cells (more ATP). Active means: 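Called active when intracellular GFP, relative to negative control, is at or above 120%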.
Here is a random part of about 50,000 reagents. In the full data, about 4,000 (8%) got an active call. 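Mouse siRNA library applied to hamster cells; one well for each siRNA.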 Reagents against one gene are numbered here.

gene | reagent no. | GFP, % of control | viability (ATP), % of control | outcome
Tmem208 (transmembrane protein 208) | 1 | 42.1 | 82.9 | inactive
Tmem208 (transmembrane protein 208) | 2 | 31.8 | 84.1 | inactive
Tmem208 (transmembrane protein 208) | 3 | 43.4 | 70.4 | inactive
Coq8a (coenzyme Q8A) | 1 | 70.1 | 87.4 | inactive
Coq8a (coenzyme Q8A) | 2 | 69.5 | 71.5 | inactive
Coq8a (coenzyme Q8A) | 3 | 120 | 151 | inactive
C730034F03Rik (RIKEN cDNA C730034F03 gene) | 1 | 70.9 | 81.2 | inactive
C730034F03Rik (RIKEN cDNA C730034F03 gene) | 2 | 50.1 | 44.1 | inactive
C730034F03Rik (RIKEN cDNA C730034F03 gene) | 3 | 114 | 131 | inactive
Or2v1 (olfactory receptor family 2 subfamily V member 1) | 1 | 121 | 81.9 | active
Or2v1 (olfactory receptor family 2 subfamily V member 1) | 2 | 57.2 | 59.1 | inactive
Or2v1 (olfactory receptor family 2 subfamily V member 1) | 3 | 42.7 | 63.6 | inactive
Cox7b (cytochrome c oxidase subunit 7B) | 1 | 124 | 124 | active
Cox7b (cytochrome c oxidase subunit 7B) | 2 | 94.2 | 54.8 | inactive
Scrib (scribbled planar cell polarity) | 1 | 57 | 81.1 | inactive
Scrib (scribbled planar cell polarity) | 2 | 20.7 | 40.1 | inactive
Scrib (scribbled planar cell polarity) | 3 | 76.5 | 84.8 | inactive
Tfdp2 (transcription factor Dp 2) | 1 | 80 | 94 | inactive
Tfdp2 (transcription factor Dp 2) | 2 | 102 | 105 | inactive
Tfdp2 (transcription factor Dp 2) | 3 | 96.6 | 95.8 | inactive
Angptl2 (angiopoietin-like 2) | 1 | 144 | 72.5 | active
Angptl2 (angiopoietin-like 2) | 2 | 30.7 | 110 | inactive
Sirpa (signal-regulatory protein alpha) | 1 | 86.9 | 87.6 | inactive
Sirpa (signal-regulatory protein alpha) | 2 | 84.7 | 78.9 | inactive
Shisa2 (shisa family member 2) | 1 | 53.4 | 44.3 | inactive
Shisa2 (shisa family member 2) | 2 | 62 | 56.5 | inactive
Shisa2 (shisa family member 2) | 3 | 121 | 130 | active
Abcb4 (ATP-binding cassette, sub-family B member 4) | 1 | 56.1 | 45.3 | inactive
Abcb4 (ATP-binding cassette, sub-family B member 4) | 2 | 85.8 | 102 | inactive
Abcb4 (ATP-binding cassette, sub-family B member 4) | 3 | 61.7 | 82.1 | inactive
Cog3 (component of oligomeric golgi complex 3) | 1 | 27.2 | 54.4 | inactive
Cog3 (component of oligomeric golgi complex 3) | 2 | 69 | 78.7 | inactive
Cog3 (component of oligomeric golgi complex 3) | 3 | 62 | 102 | inactive
Nup188 (nucleoporin 188) | 1 | 64.9 | 75 | inactive
Nup188 (nucleoporin 188) | 2 | 67.8 | 87.4 | inactive
Nup188 (nucleoporin 188) | 3 | 50 | 51.3 | inactive
Pglyrp3 (peptidoglycan recognition protein 3) | 1 | 126 | 122 | active
Pglyrp3 (peptidoglycan recognition protein 3) | 2 | 84.9 | 60.1 | inactive
Pglyrp3 (peptidoglycan recognition protein 3) | 3 | 93.8 | 71.1 | inactive
Nrep (neuronal regeneration related protein) | 1 | 76.6 | 85.9 | inactive
Nrep (neuronal regeneration related protein) | 2 | 83.1 | 73.4 | inactive
Nrep (neuronal regeneration related protein) | 3 | 86.6 | 105 | inactive
Prr5l (proline rich 5 like) | 1 | 57.1 | 57.2 | inactive
Prr5l (proline rich 5 like) | 2 | 93.5 | 80.6 | inactive
Prr5l (proline rich 5 like) | 3 | 53.4 | 55.6 | inactive
Camk2b (calcium/calmodulin-dependent protein kinase II, beta) | 1 | 149 | 76 | active
Camk2b (calcium/calmodulin-dependent protein kinase II, beta) | 2 | 78.5 | 59 | inactive
Camk2b (calcium/calmodulin-dependent protein kinase II, beta) | 3 | 63.9 | 62.9 | inactive
Pign (phosphatidylinositol glycan anchor biosynthesis, class N) | 1 | 111 | 94.8 | inactive
Pign (phosphatidylinositol glycan anchor biosynthesis, class N) | 2 | 62.6 | 87.1 | inactive
Pign (phosphatidylinositol glycan anchor biosynthesis, class N) | 3 | 92.9 | 139 | inactive
Hspd1 (heat shock protein 1 (chaperonin)) | 1 | 90.6 | 105 | inactive
Hspd1 (heat shock protein 1 (chaperonin)) | 2 | 90.5 | 80.2 | inactive
Hspd1 (heat shock protein 1 (chaperonin)) | 3 | 82.6 | 73.2 | inactive
Or14j5 (olfactory receptor family 14 subfamily J member 5) | 1 | 77.6 | 53.3 | inactive
Or14j5 (olfactory receptor family 14 subfamily J member 5) | 2 | 48.5 | 82.9 | inactive
Or14j5 (olfactory receptor family 14 subfamily J member 5) | 3 | 77.5 | 80.7 | inactive
Itm2b (integral membrane protein 2B) | 1 | 78 | 62.8 | inactive
Itm2b (integral membrane protein 2B) | 2 | 69.2 | 58.5 | inactive
Itm2b (integral membrane protein 2B) | 3 | 109 | 65.3 | inactive
Kctd13 (potassium channel tetramerisation domain containing 13) | 1 | 61.4 | 53.3 | inactive
Kctd13 (potassium channel tetramerisation domain containing 13) | 2 | 103 | 84.8 | inactive
Them7 (thioesterase superfamily member 7) | 1 | 77 | 95.8 | inactive
Them7 (thioesterase superfamily member 7) | 2 | 55.7 | 54.3 | inactive
Them7 (thioesterase superfamily member 7) | 3 | 65.5 | 80.1 | inactive
Mog (myelin oligodendrocyte glycoprotein) | 1 | 72.8 | 67.1 | inactive
Mog (myelin oligodendrocyte glycoprotein) | 2 | 75.2 | 80.6 | inactive
Mog (myelin oligodendrocyte glycoprotein) | 3 | 58.5 | 53.2 | inactive
Fsd1l (fibronectin type III and SPRY domain containing 1-like) | 1 | 61.5 | 73.7 | inactive
Fsd1l (fibronectin type III and SPRY domain containing 1-like) | 2 | 107 | 77.1 | inactive
Fsd1l (fibronectin type III and SPRY domain containing 1-like) | 3 | 89.5 | 90 | inactive

As entered above:
Angptl2 (angiopoietin-like 2) #1, GFP, % of control = 144
C730034F03Rik (RIKEN cDNA C730034F03 gene) #1, outcome = inactive
Result for Tfdp2 (transcription factor Dp 2) #1 in “viability (ATP), % of control”: 94
For “GFP, % of control”, Or2v1 (olfactory receptor family 2 subfamily V member 1) #1 has 121
Under “viability (ATP), % of control”, Nup188 (nucleoporin 188) #2 is entered as 87.4
Result of Cox7b (cytochrome c oxidase subunit 7B) #1 under “GFP, % of control”: 124

Further results:
gene | reagent no. | GFP, % of control | viability (ATP), % of control | outcome
Snrpc (U1 small nuclear ribonucleoprotein C) | 1 | 117 | 61.6 | inactive
Snrpc (U1 small nuclear ribonucleoprotein C) | 2 | 25.9 | 54.3 | inactive
Snrpc (U1 small nuclear ribonucleoprotein C) | 3 | 49.8 | 57.5 | inactive
Trappc14 (trafficking protein particle complex 14) | 1 | 103 | 61 | inactive
Trappc14 (trafficking protein particle complex 14) | 2 | 89.1 | 88.6 | inactive
Trappc14 (trafficking protein particle complex 14) | 3 | 84.8 | 79.5 | inactive
Brat1 (BRCA1-associated ATM activator 1) | 1 | 63.6 | 70.3 | inactive
Brat1 (BRCA1-associated ATM activator 1) | 2 | 55.5 | 50.2 | inactive
Brat1 (BRCA1-associated ATM activator 1) | 3 | 113 | 103 | inactive
Ip6k1 (inositol hexaphosphate kinase 1) | 1 | 134 | 65 | active
Ip6k1 (inositol hexaphosphate kinase 1) | 2 | 62.1 | 65.4 | inactive
Ip6k1 (inositol hexaphosphate kinase 1) | 3 | 85.2 | 104 | inactive
Lhcgr (luteinizing hormone/choriogonadotropin receptor) | 1 | 120 | 80.9 | active
Lhcgr (luteinizing hormone/choriogonadotropin receptor) | 2 | 87.5 | 57.9 | inactive
Lhcgr (luteinizing hormone/choriogonadotropin receptor) | 3 | 71.8 | 76.8 | inactive
Ascl1 (achaete-scute family bHLH transcription factor 1) | 1 | 108 | 93.6 | inactive
Ascl1 (achaete-scute family bHLH transcription factor 1) | 2 | 72.9 | 77.2 | inactive
Hspe1 (heat shock protein 1 (chaperonin 10)) | 1 | 76.5 | 69.4 | inactive
Hspe1 (heat shock protein 1 (chaperonin 10)) | 2 | 83.6 | 49.7 | inactive
Hspe1 (heat shock protein 1 (chaperonin 10)) | 3 | 108 | 110 | inactive
Or10a4 (olfactory receptor family 10 subfamily A member 4) | 1 | 91 | 74.8 | inactive
Or10a4 (olfactory receptor family 10 subfamily A member 4) | 2 | 61.8 | 66.5 | inactive
Or10a4 (olfactory receptor family 10 subfamily A member 4) | 3 | 43.9 | 20.5 | inactive
Nfe2 (nuclear factor, erythroid derived 2) | 1 | 105 | 80.1 | inactive
Nfe2 (nuclear factor, erythroid derived 2) | 2 | 31.4 | 32.2 | inactive
Nfe2 (nuclear factor, erythroid derived 2) | 3 | 74.5 | 118 | inactive
Junb (jun B proto-oncogene, AP-1 transcription factor subunit) | 1 | 99.9 | 105 | inactive
Junb (jun B proto-oncogene, AP-1 transcription factor subunit) | 2 | 92.9 | 70 | inactive
Junb (jun B proto-oncogene, AP-1 transcription factor subunit) | 3 | 91.3 | 103 | inactive
Tmem39b (transmembrane protein 39b) | 1 | 73.4 | 24.1 | inactive
Tmem39b (transmembrane protein 39b) | 2 | 58.9 | 78.8 | inactive
Tmem39b (transmembrane protein 39b) | 3 | 88.3 | 97 | inactive
Ifitm2 (interferon induced transmembrane protein 2) | 1 | 60.6 | 70.6 | inactive
Ifitm2 (interferon induced transmembrane protein 2) | 2 | 95.9 | 88.4 | inactive
Ifitm2 (interferon induced transmembrane protein 2) | 3 | 81.2 | 74.5 | inactive
9530002B09Rik (RIKEN cDNA 9530002B09 gene) | 1 | 42.7 | 50.4 | inactive
9530002B09Rik (RIKEN cDNA 9530002B09 gene) | 2 | 73.9 | 86.4 | inactive
9530002B09Rik (RIKEN cDNA 9530002B09 gene) | 3 | 43.4 | 50.6 | inactive
